Reference: patent US9453053B2, “Short peptides for enhancing muscle function” (UNIVERSITAT HEIDELBERG, priority 2010, dated 2016)
Part of at least one peptide drawing is inferred or uncertain, most often the ends. Ends that are not written are not given here.

Key:
[1] = test system: Anesthetized adult C57/B6 male mice; assay: In vivo hemodynamics by left ventricular catheterization in anesthetized mice; design: species or system mouse
[2] = test system: sarcoplasmic reticulum (SR) calcium content; assay: SR calcium load by caffeine pulse in field-stimulated ventricular cardiomyocytes; assay type: cell-based; conditions: 1000 nM, 10 mM caffeine, field-stimulated (2 Hz), vs control
[3] = test system: isolated rat ventricular cardiomyocytes; assay type: cell-based
[4] = test system: C57/B6 male/female mice with postischemic contractile dysfunction; assay: Experimental mouse heart failure model: echocardiography and survival; assay type: in vivo; conditions: 225 ng i.p. daily for 2 weeks
[5] = test system: C57/B6 male/female mice with postischemic contractile dysfunction; assay: Experimental heart failure model: TUNEL staining of failing myocardium; assay type: in vivo, mouse; conditions: 225 ng i.p. daily for 2 weeks
[6] = test system: adult ventricular cardiomyocytes with leaky RyR2s; assay: Apoptotic cell death of caffeine-exposed adult ventricular cardiomyocytes; assay type: cell-based
[7] = test system: cardiomyocytes with leaky RyR2s; assay: Store overload-induced calcium release (SOICR) and calcium waves in cardiomyocytes (βAR stimulation + 0.5 mM caffeine); assay type: cell-based
[8] = test system: Anesthetized adult C57/B6 male mice; conditions: 225 ng i.v. 15 min after i.p. metoprolol (62.5 μg)
[9] = test system: intact extensor digitorum longum (EDL) skeletal muscle; assay: Isometric and tetanic twitch force of isolated intact EDL skeletal muscle; assay type: cell-based, mouse
[10] = test system: β-adrenergic receptor (βAR) signaling including cAMP-dependent kinase (PKA) activity; assay: Western blot with phospho-specific antibodies (PLB, TnI); assay type: cell-based; conditions: basal conditions and βAR stimulation

With “DKDDPPYVVLVAALTVA [S100A1ct6/11, D-K-D-D-P-P-Y-V-V-L-V-A-A-L-T-V-A (SEQ ID NO: 42)]” the “dependence of the inotropic effect in vivo on heart rate” value ([1]; 225 ng i.v.) was “independent of heart rate”, the “enhancement of contractile performance with i.v. isoproterenol” value ([1]; 225 ng i.v., isoproterenol 250 pg i.v.) was “preserved and additive” and the basal contractile performance ([1]; 225 ng i.v., left ventricular catherization) was “significantly enhanced basal contractile performance”. For the same sequence, the “effectiveness after other routes” value ([1]; intraperitoneal and subcutaneous use) was “effective with delayed onset”, the “duration of enhancement of left ventricular contractile performance” value ([1]; single i.v. application of 225 ng, mice 30 g BW) was 3 h and the “amplitude of the caffeine evoked calcium transient (SR calcium content)” value [2] was “greater”. The “inotropic effect (calcium transients) under βAR stimulation” value ([3]; basal and 10^−9 M Isoproterenol, FIG. 11A/13B) was “additive and preserved”, the “inotropic effect (calcium transients)” value ([3]; basal, FIG. 9-11, field-stimulated cardiomyocytes) was “positive inotropic effect” and the “left ventricular performance (serial echocardiography)” value [4] was “restoring left ventricular performance”. For the same sequence, the “apoptosis in failing hearts (TUNEL)” value [5] was “significantly diminished apoptosis”, the DNA laddering ([6]; DNA gel, two independent experiments) was “laddered DNA in control but not S100A1ct6/11 treated cardiomyocytes” and the apoptotic cardiomyocytes ([6]; long-term caffeine exposure, vs control) was “significantly less apoptotic cardiomyocytes”. The “SOICR triggered calcium waves” value ([7]; 100 nM and 1000 nM, βAR stimulation+0.5 mM caffeine) was “completely prevented”, the “SR calcium leak under SOICR conditions” value ([7]; 1000 nM, βAR stimulation+0.5 mM caffeine) was “effectively antagonizes the SR calcium leak” and the “calcium spark frequency and spatial characteristics” value ([7]; in the presence of isoproterenol/caffeine) was “normalizing abnormal calcium spark frequency and spatial characteristics”. For the same sequence, the “effect on negative inotropic and chronotropic effect of metoprolol” value [8] was “antagonized the negative inotropic but not the negative chronotropic effect of metoprolol”, the “inotropic effectiveness in presence of the β1AR blocker metoprolol” value [8] was “preserved S100A1ct6/11 inotropic effectiveness” and the “specific isometric and tetanic twitch force” value ([9]; 1 μM for 45 min, EDL of 12 weeks old C57/B6 male mice) was “significantly enhanced”. For the same sequence, the “EDL isometric and tetanic twitch force” value ([9]; extracellular application 0.1-1 μM) was “significantly enhances EDL isometric and tetanic twitch force in a dose-dependent manner” and the “βAR signaling including PKA activity at PLB and TnI” value [10] was “neither recruits nor alters”.
